From paper PMC9027599, “Secondary Metabolites in Basil, Bio-Insecticide, Inhibition Effect, and In Silico Molecular Docking against Proteolytic Enzymes of the Red Palm Weevil (Rhynchophorus ferrugineus)” (Plants, 2022)

Experiments:
R. ferrugineus adults = settings: probit analysis of adult mortality; value ± standard error
[1] = system: R. ferrugineus fourth larvae; experiment: Topical application (contact insecticide) on larvae; assay type: in vivo, Rhynchophorus ferrugineus; settings: probit analysis of larval mortality; value ± standard error

| Structure (SMILES) | Slope (Adult) (R. ferrugineus adults) | Slope (4th Larvae) [1] |
| --- | --- | --- |
| C[C@@H]1O[C@@H](OC[C@H]2O[C@@H](Oc3c(-c4ccc(O)c(O)c4)oc4cc(O)cc(O)c4c3=O)[C@H](O)[C@@H](O)[C@@H]2O)[C@H](O)[C@H](O)[C@H]1O [Quercetin-3-O-rutinoside] | 2.89 ± 0.24 | 1.42 ± 0.29 |
| COc1ccc(-c2cc(=O)c3c(O)c(OC)c(OC)cc3o2)cc1 [Salvigenin, 5-Hydroxy-6,7,4′-trimethoxyflavone] | 2.87 ± 0.20 | 2.03 ± 0.22 |
| O=C(/C=C/c1ccc(O)c(O)c1)O[C@H](Cc1ccc(O)c(O)c1)C(=O)O [Rosmarinic acid] | 2.61 ± 0.22 | 1.94 ± 0.25 |
| O=C(O)C[C@H](C(=O)O)[C@@H](O)C(=O)O [Isocitric acid] | 2.12 ± 0.19 | 1.08 ± 0.30 |
| O=C(/C=C/c1ccc(O)c(O)c1)O/C=C\c1ccc(O)c(O)c1 [Nepetoidin B] | 2.82 ± 0.20 | 1.97 ± 0.23 |
| C[C@H]1[C@H](C)CC[C@]2(C(=O)O)CC[C@]3(C)C(=CC[C@@H]4[C@@]5(C)CC[C@H](O)C(C)(C)[C@@H]5CC[C@]43C)[C@H]12 [Ursolic acid] | 2.85 ± 0.23 | 1.46 ± 0.28 |
